{"source": "paper PMC3068133", "key": {"[1]": {"molecular_target": "constitutively active Myc-PTK6 YF (human) (UniProt Q13882)", "assay": "co-IP; HEK293 co-transfected with a constant amount of PTK6 YF and increasing amounts of ALT-PTK6; 500 µg of total cell lysate, 1 µg of mouse anti-Myc-tag; immunoblotting (phosphotyrosine 4G10 + PY20, Myc tag)"}, "[2]": {"molecular_target": "GST-ALT-PTK6 fusion protein (human) (UniProt Q13882)", "assay": "pull-down; GST or GST-ALT-PTK6 fusion protein incubated with PC3 total cell lysates; bound proteins detected by immunoblotting; only the target purified"}}, "note": "No constants are given. Whether binding was seen depends on the method and setting. In cells and extracts the contact can be indirect. Some entries that bind do so weakly or less than the wild type.", "data": [{"substance": "Myc-epitope tagged ALT-PTK6 (from UniProt Q13882-2 1-134)", "values": [{"measurement": "binding", "setting": "[1]", "value": "no binding"}]}, {"substance": "β-catenin (from UniProt P35222 1-781)", "values": [{"measurement": "binding", "setting": "[2]", "value": "binds"}]}]}
